For one sequence, Kd results are on record in PMC2527678.

Residue numbers refer to the chain shown, from its start. pKd: −log10 of the molar value. For at least one entry, the source does not settle the construct or the ends of the probe. Protein sequences can lack the tags named with them.

Common to all, as to assay: EMSA
A general note: In EMSA bound probe runs differently from free probe, usually more slowly.

The target of one data set is T1, Adr1 DBD S98D (UniProt P07248).
T1 sequence (looked up): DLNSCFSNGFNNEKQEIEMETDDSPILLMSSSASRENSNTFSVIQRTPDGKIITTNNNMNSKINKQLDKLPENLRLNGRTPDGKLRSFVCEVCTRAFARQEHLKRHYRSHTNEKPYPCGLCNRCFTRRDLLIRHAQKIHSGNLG
The conditions noted are these: apparent equilibrium constant, approximately 10-fold reduced; EMSA as in Thukral et al. [17]; recombinant protein; residues 17-160.

The target of another data set is T2, Adr1 DBD S98A (UniProt P07248).
T2 sequence (looked up): T1 sequence (looked up) with D82A
The conditions noted are these: apparent equilibrium constant; EMSA as in Thukral et al. [17]; recombinant protein; residues 17-160.

The target in a further data set is T3, Adr1 DBD wild type (UniProt P07248).
T3 sequence (looked up): T1 sequence (looked up) with D82S
The conditions noted are these: apparent equilibrium constant; EMSA as in Thukral et al. [17]; recombinant protein; residues 17-160.

What is called pKd is the negative decadic logarithm of the Kd, by convention in mol/L. “GCATTGACTAAGTTCTCCAACTTATAAGTTGGAGATGAATCAGTTACG (double strand) [ADH2 promoter UAS1 probe]”: the values for the pKd in the data set with Adr1 DBD S98D, with Adr1 DBD S98A and with Adr1 DBD wild type were 6.70, 7.70 and 7.70, respectively.
